This assay can be described thus: qHTS Assay to Find Inhibitors of Chronic Active B-Cell Receptor Signaling. The following applies: ABC-DLBCL IkBa-CBG/CBR reporter, luminescence ratio (green luciferase fused to IkBa over red control in TMD8 lymphoma cells), 4 h. The essentials:
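Cell line TMD8 (human ABC DLBCL), stably expressing tet-inducible CBG68-IkBa fusion and CBR; IMDM/0.5% FBS; cpd up to 46 uM; dox induction, 4 h, 37C/5% CO2; dual luminescence; green/red ratio; MG132 control.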
(In qHTS, concentration-response curves come from the screen itself.)

[1] abbreviates: measured here: CBR red luminescence, cell number.
Setting [2] is: measured here: IkBa-CBG green luminescence.

This is one part of the list. The main result of the screen is listed elsewhere. These columns were measured beside it and carry no call. Compounds called inactive in the main read-out are mostly missing here. Words in brackets tell the shape of the fitted curve; partial curves, single points and poor fits give uncertain potencies.

Our source for the AC50 values is PubChem BioAssay AID493014 (National Center for Advancing Translational Sciences (NCATS), 2011).

In general, AC50 refers to the midpoint of the concentration-response curve, whichever way the signal moves.

Turning to `Cc1ccc(C=Nc2ccccc2C(N)=O)s1`, the AC50 under setting [1] was 29.1 µM [rising, single point].
Still for that read-out and setting: with `CCCCOC(=O)c1ccc(NC(=S)NC(=O)c2c(Br)c(C)nn2C)cc1` the figure was 0.326 µM [falling, full curve]; with `C=CCN(CC=C)CCOc1cccc2ccccc12`, 16.4 µM [rising, single point]; with `O=C(CCc1ccccc1)NNC(=O)c1cccc(F)c1`, 35.5 µM [falling, single point].
On to `Cc1cc(NC(=O)CSc2nnc(-c3c[nH]c4ccccc34)n2-c2ccc(Cl)cc2)no1`, for which, under setting [1], the AC50 is 23.1 µM [rising, single point].
On the same count and under the same terms, under `O=C(COC(=O)Cc1ccc(S(=O)(=O)N2CCCCC2)s1)Nc1ccc2c(c1)OCO2` stands 17.8 µM [rising, partial curve, poor fit]; under `CC1=C(C/C=C(\C)CCCC(C)CCCC(C)CCCC(C)C)C(=O)c2ccccc2C1=O` (configuration not stated), 20.6 µM [falling, single point].
The same measure, in the same setting: with `Cc1cccc(NC(=S)NC(=O)c2ccc(Br)o2)c1` the figure was 17.8 µM [falling, partial curve, poor fit]; with `COc1ccc(N(CC(=O)NCC(C)C)S(=O)(=O)c2ccccc2)cc1`, 0.794 µM [rising, full curve].
On the same count and under the same terms, under `COc1cc(/C=C(/C#N)c2nc3ccccc3c(=O)[nH]2)ccc1O` stands 20.6 µM [falling, single point]; under `Cc1ccc2nc(NCc3ccccc3)c(C#N)cc2c1`, 1.58 µM [rising, full curve, poor fit]; under `O=C(CSc1nc2ccccc2o1)Nc1nc(-c2ccccc2)cs1`, 23.1 µM [falling, partial curve, poor fit].
As to `O=C(N/N=C/c1c(O)ccc2ccccc12)c1[nH]ncc1Br`, under setting [1], the AC50 was 18.4 µM [falling, partial curve].
Still for that read-out and setting: with `CC(=O)Nc1ccc(NC(=O)CNC(=O)COc2ccccc2)cc1` the figure was 14.1 µM [rising, partial curve]; with `COc1ccc(/C=C2/SC(=S)N(CCC(=O)O)C2=O)cc1`, 0.224 µM [falling, full curve, poor fit]; with `Cc1nn2c(=S)[nH]nc2[nH]c1=O`, 20 µM [rising, partial curve, poor fit].
On the same count and under the same terms, with `O=C(NCCCCCNC(=O)c1cccnc1)c1cccnc1` the figure was 0.116 µM [falling, full curve, poor fit]; with `O=C(NC1CC1)C1=C[C@@H](c2csc3ccccc23)C[C@@H](OCCCCO)O1`, 8.91 µM [falling, partial curve, poor fit]; with `Cc1nn(-c2ccccc2)c2c1C(c1ccc(F)cc1)C(C#N)=C(N)O2` (configuration not stated), 16.4 µM [falling, single point].
Still for that read-out and setting: under `Cc1cc(C(=O)C(=O)N(C)C)c(C)n1-c1ccc([N+](=O)[O-])cc1` stands 8.2 µM [rising, partial curve, poor fit]; under `O=C(CN1C(=O)NC2(CCCC2)C1=O)Nc1ccc(F)c([N+](=O)[O-])c1`, 14.1 µM [falling, single point]; under `COCCCNC(=S)Nc1cccc(SC)c1`, 6.31 µM [falling, single point].
In the case of `Cc1cc([N+](=O)[O-])nn1CC(=O)NCc1cccs1`, the AC50 under setting [1] was 35.5 µM [falling, single point].
Still for that read-out and setting: under `COc1cccc(C2OC(=O)c3ccccc3N2C(C)=O)c1OC(C)=O` (configuration not stated) stands 3.26 µM [falling, single point].
The same measure, in the same setting: with `CC1CC(C)CN(C(=O)CSc2nnc(-c3ccc(Cl)cc3)o2)C1` (configuration not stated) the figure was 32.6 µM [rising, single point]; with `CC(=O)N(c1nc(/C=C\C(=O)O)cs1)c1ccccc1F`, 0.447 µM [rising, full curve, poor fit].
Same read-out and setting: under `CN(CCCNC(=O)c1cc2c(Cl)nc3ccccc3c2s1)Cc1ccccc1` stands 15.8 µM [falling, single point]; under `CCOCCCn1c(SCC(=O)Nc2ccc(OC)cc2)nc2ccccc2c1=O`, 0.562 µM [rising, full curve, poor fit].
Consider `COC(=O)c1cc2ccsc2n1CC(=O)Nc1cc(Cl)ccc1OC`, for which, under setting [1], the AC50 was 0.731 µM [falling, partial curve, poor fit].
Still for that read-out and setting: with `Cc1cccc(C)c1OCC(=O)Nc1ncn[nH]1` the figure was 0.146 µM [rising, full curve, poor fit].
`COc1cc(-c2noc(C)c2C#Cc2ccsc2)cc(OC)c1OC`: the AC50 under setting [1] is 5.62 µM [rising, full curve] and the AC50 under setting [2] is 7.08 µM [falling, partial curve].
Regarding `CC(C)CC(=O)Nc1ccc(C(=O)Nc2cccc(O)c2)cc1`, under setting [1], the AC50 is 0.891 µM [falling, full curve, poor fit].
In the case of `O=[N+]([O-])c1ccc(CNc2ccc(Cl)cc2)s1`, the AC50 under setting [1] is 11.2 µM [rising, partial curve].
Same read-out and setting: with `O=c1[nH]c(=O)n(Cc2ccccc2)c2nc(-c3ccc(C(F)(F)F)cc3)n(CCO)c12` the figure was 3.98 µM [rising, partial curve, poor fit]; with `COc1cccc(/C=N/NC(=O)c2c(C)nc3ccc(Cl)cn23)c1O`, 20 µM [falling, partial curve, poor fit]; with `O=C(COc1ccccc1)Nc1ccc([N+](=O)[O-])cc1`, 5.8 µM [rising, full curve].
Take `CCc1ccccc1OCC(=O)Nc1cccc(S(=O)(=O)N2CCCC2)c1`: the AC50 under setting [1] was 13 µM [falling, partial curve].
Same read-out and setting: with `Cc1cc(=O)[nH]c2nnc(SCC(=O)Nc3ccc(OC(F)(F)F)cc3)n12` the figure was 2.82 µM [rising, single point]; with `COc1ccc(CCNC(=O)NC2CCCCC2)cc1OC`, 29.1 µM [falling, single point].
With `CCOc1ccc(NC(=O)COc2ccc(OC)cc2)cc1`, under setting [1], the AC50 is 22.4 µM [rising, single point].
For `Cc1cccc(C)c1NC(=O)Cn1c(=O)n(CCCC(=O)NCc2ccco2)c(=O)c2sccc21`, the AC50 under setting [1] is 12.6 µM [rising, partial curve, poor fit].
On the same count and under the same terms, under `COc1cc2c(cc1NC(=O)c1ccc3c(c1)OCO3)oc1ccccc12` stands 4.11 µM [rising, full curve, poor fit]; under `COC(=O)c1c(NC(=O)COc2ncnc3ccccc23)sc(C)c1C`, 5.17 µM [falling, partial curve, poor fit]; under `Cc1c(C(=O)c2cccc(F)c2)c2ccccn2c1CCC#N`, 35.5 µM [falling, single point].
Turning to `COc1ccc(-c2cc3c(=O)n(CC(=O)NC4CCN(Cc5ccccc5)CC4)ncn3n2)cc1`, the half-maximal activity concentration (AC50) under setting [1] was 1.03 µM [falling, full curve, poor fit].
The same measure, in the same setting: under `COc1ccccc1NC(=O)NNC(=O)C(C)Oc1ccc2ccccc2c1` (configuration not stated) stands 14.1 µM [rising, single point]; under `O=C(NCCc1ccccc1)C(c1cccs1)N(C(=O)c1csnn1)C1CC1` (configuration not stated), 22.4 µM [rising, single point]; under `NC(=O)c1c(NC(=S)Nc2ccccc2)sc2c1CCCC2`, 1.12 µM [rising, full curve, poor fit].
The same measure, in the same setting: with `Cc1cc(C(=O)OCC(=O)c2ccc3c(c2)OCCO3)c(C)o1` the figure was 35.5 µM [rising, partial curve, poor fit]; with `O=C(Nc1cccc(O)c1)c1cc(-c2ccccc2Cl)on1`, 7.94 µM [falling, partial curve]; with `CCS(=O)(=O)c1ccc(O)c(NC(=O)COc2ccc(C)cc2)c1`, 29.1 µM [falling, single point].
The same measure, in the same setting: with `Cn1c(/C=C/c2ccc(Br)cc2)nc2ccccc2c1=O` the figure was 0.0891 µM [rising, full curve, poor fit].
Turning to `COCCN(C(=O)COC(=O)/C=C/c1ccc2ccccc2n1)c1c(N)n(Cc2ccccc2)c(=O)[nH]c1=O`, under setting [1], the AC50 was 7.08 µM [falling, full curve].
Same read-out and setting: under `CCc1ccc(C2CC(=O)NC(SCC(=O)OC(C)C)=C2C#N)cc1` (configuration not stated) stands 6.51 µM [rising, single point]; under `Cc1ccccc1CSc1nc(-c2ccccc2)cc(=O)[nH]1`, 2.91 µM [rising, partial curve]; under `O=C(Nc1cccnc1N1CCOCC1)c1cccs1`, 31.6 µM [rising, single point].
Still for that read-out and setting: under `COc1ccc(/C=N/NC(=O)c2cc(Br)ccc2O)cc1Cn1cc(Cl)cn1` stands 1.3 µM [falling, partial curve]; under `O=C(Nc1nnc(S(=O)(=O)N2CCCC2)s1)c1cccc([N+](=O)[O-])c1`, 15.8 µM [rising, partial curve, poor fit]; under `O=C(Nc1ccc(Br)cc1)c1cnc[nH]1`, 35.5 µM [falling, single point].
As to `O=[N+]([O-])c1cc(Br)c2nsnc2c1N1CCOCC1`, the AC50 under setting [1] is 17.8 µM [rising, single point].
Same read-out and setting: under `O=C1C(Cc2cccc([N+](=O)[O-])c2)S/C(=N/N=C/c2ccco2)N1c1ccccc1` (configuration not stated) stands 0.58 µM [rising, full curve].
Consider `COc1ccc(Oc2ccccc2C=O)cc1`, for which the AC50 was 17.8 µM [rising, partial curve] under setting [1] and 17.8 µM [falling, single point] under setting [2].
On to `CC(/C=C/c1ccc(O)cc1)=N/O`, for which the AC50 under setting [1] is 4.11 µM [falling, full curve, poor fit].
On to `CCN1/C(=C/C=C/C=C/c2sc3ccccc3[n+]2CC)Sc2ccccc21`, for which, under setting [1], the AC50 was 35.5 µM [falling, single point].
With `CC1CCc2[nH]c3ccc(C(=O)Nc4ccc(C(=O)N(C)C)cc4)cc3c2C1` (configuration not stated), the AC50 under setting [1] was 3.16 µM [rising, partial curve, poor fit].
